Assay results published in PubChem BioAssay AID2685 (National Center for Advancing Translational Sciences (NCATS), 2010).
Screen size: about 320,000 compounds; about 2,100 (0.66%) were called active. The inconclusive results got no clear call from the source; some entries with a clear call stand among them for comparison. The call rests on the fitted dose curve; in most records, active means well fitted inhibition curve with a large enough effect in the signal ratio, with a control signal flat (not every such curve was filed as active); inconclusive means small, poorly fitted or top-dose-only effect, or effect the other way, or a change in a side signal; inactive means flat fitted curve, though single readings scatter; the % refers to the signal ratio. Potencies of inconclusive entries are doubtful fits and often do not repeat.

Assay: qHTS Assay for Lipid Storage Modulators in Drosophila S3 Cells
Conditions: BODIPY lipid droplet fluorescence, 18-24 h, cells fed with added oleic acid; lipid storage change, negative = inhibition: at 46.1 µM (top of the series) unless noted
Outline: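 Drosophila S3 cells got compounds at several concentrations plus oleic acid (400 uM solution). Laser-scanning cytometry with 488 nm excitation read lipid droplets at 500-530 nm and cells at 575-640 nm. Percent activity was relative to 20 uM Triacsin C.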
On the % scale 0 is the no-effect control and ±100 the full control effect; potency means the concentration at half of the fitted maximal effect.

Structure (SMILES) | lipid storage change, negative = inhibition | Potency
O=C(CN(c1cccc(Cl)c1)S(=O)(=O)c1ccccc1)NN=C1CCCC1 | inconclusive: 12.4% | –
CC(C)Oc1ccc(S(=O)(=O)N2CCCCC2)cc1NC(=O)CN1C(=O)NC(C)(c2ccccc2)C1=O (stereo not given) | – | inconclusive: 5.01 µM [activator, full curve, poor fit]
CC(=C/c1ccccc1)/C=N/N1CCN(Cc2ccc(C)cc2)CC1 | – | inconclusive: 29.1 µM [cytotoxic, single point]
Cc1nc2ccc(NC(=O)N(C)c3ccccc3)cc2s1 | inconclusive: 14.3% | –
COc1cccc(/C=C/C(=O)OCC(=O)NCc2ccc(Cl)cc2)c1 | inconclusive: -7.91% | –
CCOCC(=O)Nc1cc(OC)c(Cl)cc1OC | inconclusive: 90.7% | –
O=C(NCC1CCCO1)c1cc(-c2ccc(F)cc2)no1 (stereo not given) | – | inconclusive: 29.1 µM [activator, single point]
O=c1[nH]c(SCc2ccccc2Cl)nc2[nH]ncc12 | inconclusive: 26.7% [at 9.22 µM] | –
CC(OC(=O)c1ccccc1)C(=O)NCCC1=CCCCC1 (stereo not given) | – | inconclusive: 4.61 µM [falling, single point]
O=C(Nc1cccc(F)c1)Nc1ccc(Cl)cn1 | inconclusive: 32% | –
CSCCC(/C(O)=C(\C#N)c1nc2ccccc2[nH]1)N1C(=O)c2ccccc2C1=O (stereo not given) | – | inconclusive: 6.51 µM [activator, single point]
CNC(=S)NNc1nncc2ccccc12 | – | inconclusive: 16.4 µM [falling, single point]
Cc1ccc(S(=O)(=O)CCc2nnc(NC(=O)C3CCCCC3)s2)cc1 | inconclusive: 20.6% | –
COc1ccc(S(=O)(=O)NC2CCCCC2)cc1C | inconclusive: 62.1% | –
COc1cc(OC)cc(-n2nnnc2SCC(=O)N2CCCc3ccccc32)c1 | – | inconclusive: 11.6 µM [activator, partial curve]
COc1ccc(CN2C(=O)c3ccccc3C2=O)cc1C(=O)Nc1ccc(C)cc1C | – | inconclusive: 1.84 µM [activator, partial curve]
C=CCn1c(SCc2c(C)noc2C)nc2sc3c(c2c1=O)CCCCC3 | – | inconclusive: 20.6 µM [rising, single point]
O=S(=O)(Nc1cccnc1)c1ccc(Br)c2ccccc12 | – | active: 7.31 µM
CCC(=O)c1ccc(OCc2ccc(C(=O)OC)cc2)cc1 | inconclusive: -1.69% | –
Cc1ccc(C)c(S(=O)(=O)N2CCCC2CNC(=O)C(=O)NCCc2ccccc2)c1 (stereo not given) | inconclusive | –
CCNS(=O)(=O)c1ccc(CCC(=O)N2CCN(c3ccccc3)CC2)cc1 | – | inconclusive: 29.1 µM [activator, single point]
COc1ccc(S(=O)(=O)Nc2cc(C)on2)cc1 | inconclusive: -69.9% | –
O=C1CCN(CCc2ccccc2)CCN1CCO | inconclusive: 6.17% | –
COc1ccc(CC(=O)N2N=C(C)CC2(O)c2cccnc2)cc1 (stereo not given) | – | inconclusive: 29.1 µM [falling, partial curve, poor fit]
Cc1cc(NC(=O)CC23CC4CC(C2)CC(CC(=O)Nc2cc(C)on2)(C4)C3)no1 | inconclusive: 4.71% | –
Cc1ccc(C(=O)COC(=O)CNC(=O)CN2C(=O)c3ccccc3C2=O)cc1 | inconclusive: -13.7% | –
CCCN(CC(=O)Nc1ccccc1OC)C(=O)c1cc(S(=O)(=O)NCc2ccccc2)ccc1C | inconclusive: 14.6% | –

Structure (SMILES) | lipid storage change, negative = inhibition | Potency
O=C(Nc1cccc2ccccc12)c1ccc([N+](=O)[O-])o1 | inconclusive: -57.2% | –
COc1ccc(CCNC(=O)C(C)OC(=O)c2cccs2)cc1OC (stereo not given) | – | inconclusive: 29.1 µM [falling, single point]
CC(C)CC(=O)OCc1cn(-c2ccccc2)nn1 | inconclusive: -15.1% | –
CC(C)(C)c1cc(-c2n[nH]c(=S)n2-c2ccc(Cl)cc2)n[nH]1 | inconclusive: -6.42% | –
Cc1ccc(-c2nnnn2C2C/C(=N\NC(N)=S)C3OCC2O3)cc1 (stereo not given) | inactive | –
CN(CCOc1ccccc1)C(=O)c1cc(COc2c(F)cccc2F)on1 | inconclusive: 19% | –
O=C(COc1ccccc1Cl)NNC(=O)c1ccc2c(=O)n3c(nc2c1)CCC3 | – | inconclusive: 2.59 µM [falling, full curve, poor fit]
O=C(/C=C/c1ccccc1)c1c[nH]c2ccccc12 | inconclusive: 7.39% | –
Cc1csc(Nc2ccc(Cl)cc2)[n+]1-c1ccc(Cl)cc1 | inconclusive: 24.7% | –
COc1ccc(/C=C(\NC(=O)c2cccs2)C(=O)NC(C)(C)C)cc1OC | – | inconclusive: 6.51 µM [activator, single point]
CC12CC(c3ccccc3O1)C(C(=O)NCc1ccccc1)C(=O)N2 (stereo not given) | – | active: 29.1 µM
COc1ccccc1C1=NOC(C)(c2sc(-c3ccc(Cl)cc3)nc2C)C1 (stereo not given) | inconclusive: 24.5% | –
CC(=O)c1ccc(NC(=O)CN2C(=O)NC(C)(C3CCCCC3)C2=O)cc1 (stereo not given) | inconclusive: -36% | –
Cc1ccc(C(=O)NC(=S)NNC(=O)CC#N)cc1 | inconclusive: -24.2% | –
O=C(O)C1CCCCC1C(=O)NCCCN1CCCC1=O (stereo not given) | inconclusive: 17.2% | –
O=C(NCCS(=O)(=O)N1CCN(c2ccccc2)CC1)C1CC(=O)N(c2ccc(F)cc2)C1 (stereo not given) | inactive | –
CC(=O)Nc1ccc(SCc2c(C)noc2C)cc1 | inconclusive: 36.2% | –
Cc1cccc(OCC(=O)Nc2ccc(C(=O)O)cc2NC(=O)COc2cccc(C)c2)c1 | inconclusive: -33.4% | –
COc1ccc(OC)c(-c2nc(C(N)=O)c3[nH]c(=O)n(-c4ccc(F)cc4)c3n2)c1 | inconclusive: 38.9% | –
O=C(CNC(=O)[C@@H]1Cc2ccccc2CN1)NCc1ccco1 | inconclusive: -30.5% | –
CCOc1ccc(/C(CCC(=O)O)=N/NC(=S)NC(C)C)cc1 | inconclusive: 48.8% | –
Nc1ccc2oc(-c3cccc4ccccc34)nc2c1 | – | inconclusive: 6.51 µM [activator, partial curve]
Cc1ccc(NC(=O)Cn2cc(C(=O)C3CC3)c3ccccc32)c(C)c1 | – | inconclusive: 29.1 µM [rising, single point]
CC1=C(C(=O)N2CCN(c3cc(C)ccc3C)CC2)C2(CCC(C)CC2)OC1=O (stereo not given) | inconclusive: -2.52% | –
CCCCC(=O)Nc1cc(OC)c(NC(=O)C2CCCCC2)cc1OC | – | inconclusive: 29.1 µM [activator, single point]
CCOC(=O)N1CCC(NC(=O)CSCc2nc(-c3sccc3C)oc2C)CC1 | inconclusive: -1.09% | –
COc1ccc(-c2noc(CNC(=O)c3ccc4c(c3)OCO4)n2)cc1OC | inconclusive: 153% | –

Structure (SMILES) | lipid storage change, negative = inhibition | Potency
CCOc1ccccc1N1CC(C(=O)Nc2ccc(C(=O)O)cc2)CC1=O (stereo not given) | inconclusive: -37.8% | –
CC(C)CN1CCN(Cc2cccn2-c2ccccn2)CC1CCO (stereo not given) | inconclusive: 13.5% | –
COc1ccc(C2CC(c3ccccc3)=NN2C(=O)COC(=O)/C=C/c2ccc(O)c(OC)c2)cc1 (stereo not given) | inconclusive: 15.8% | –
COC(=O)c1ccccc1NC(=O)N1CCN(c2ccc(F)cc2)CC1 | inconclusive: 14.8% | –
Cc1cc(OCC(=O)N2CCN(c3ccccn3)CC2)cc(C)c1Br | inconclusive: -15.8% | –
O=S(=O)(Nc1ccc2cn[nH]c2c1)c1ccc(C(F)(F)F)cc1 | inconclusive: 20.7% | –
CCOc1ccc([C@@H]2CC=C(C(=O)O)CN2S(=O)(=O)c2ccc(C)cc2)cc1 | – | inconclusive: 0.0731 µM [activator, full curve, poor fit]
COc1ccc(C(O)P(=O)(OCC(C)C)OCC(C)C)c(OC)c1 (stereo not given) | inconclusive: -18.7% | –
COCCOC(=O)C1=C(C)Nc2cc(=O)[nH]c(=O)n2C1c1cccc([N+](=O)[O-])c1 (stereo not given) | inconclusive: 7.94% | –
NC(=O)COC(=O)c1ccccc1OCc1ccccc1 | inconclusive: 28.6% | –
NC(=O)c1cc2c(s1)-c1cc(Cl)ccc1SC2 | – | inconclusive: 1.64 µM [rising, full curve, poor fit]
S=C(Nc1ccc(Cl)cc1Cl)N1CCN(c2ccccn2)CC1 | inconclusive: 21.4% | –
COc1ccc(C(CC(=O)c2ccc(C)cc2)C(C#N)C#N)cc1OC (stereo not given) | inconclusive: 0.76% | –
CN(CC(=O)Nc1cccc(F)c1)C(=O)c1cccc2ccccc12 | – | active: 5.8 µM
CCN(CC)c1ccc(C(=S)NC2CCCCC2)cc1 | – | inconclusive: 11.6 µM [falling, partial curve]
COc1cc(C(=O)Nn2cnnc2)ccc1OC(F)F | inconclusive: 26.3% | –
O=C(NCCc1ccc(Cl)cc1)Nc1ccc(F)cc1 | inactive | –
CC(C)NCCCCOc1ccc(Br)cc1Cl | inconclusive: 48.8% | –
CCN1CCN(Cc2nc3c(c(=O)n(C)c(=O)n3C)n2C(C)C(C)=O)CC1 (stereo not given) | inconclusive: 52.1% | –
CCCN1CCC(=NNc2ccc(S(N)(=O)=O)cc2[N+](=O)[O-])CC1 | inactive | –
O=C(c1cccc(S(=O)(=O)N2CCOCC2)c1)N(CCc1ccccc1)Cc1ccccc1 | – | inconclusive: 5.8 µM [falling, full curve]
Cn1cccc1Cc1nnc(SCC(=O)N2CCCCCC2)n1CCc1ccccc1 | inconclusive: -0.77% | –
CNC(=O)CCCCC(=O)N/N=C/c1ccc(Cl)cc1Cl | inconclusive: 9.59% | –
COc1ccc(NC(=O)c2ccc(N3CCOCC3)nc2)cc1 | inconclusive: -41% | –
Cc1ccnc(NC(=O)CCC(=O)N(CC(=O)NCc2ccccc2)Cc2cccs2)c1 | inconclusive: 19% | –
CC1CCC(NC(=O)c2cc(S(=O)(=O)N3CCCCC3)ccc2N2CCOCC2)CC1 (stereo not given) | inconclusive: 16.9% | –

4 entries out of the list, sorted by SMILES length, high to low:
Structure (SMILES) | lipid storage change, negative = inhibition | Potency
Cn1cccc1Cc1nnc(SCC(=O)N2CCCCCC2)n1CCc1ccccc1 | inconclusive: -0.77% | –
CN(CC(=O)Nc1cccc(F)c1)C(=O)c1cccc2ccccc12 | – | active: 5.8 µM
S=C(Nc1ccc(Cl)cc1Cl)N1CCN(c2ccccn2)CC1 | inconclusive: 21.4% | –
COc1cc(C(=O)Nn2cnnc2)ccc1OC(F)F | inconclusive: 26.3% | –
